These results are taken from article PMC6901522.

Results are given in words; binding and its absence hold for the method and conditions named. Where a sequence is shown, tags or fusion partners need not be part of it.

The target in this experiment is human myeloid-derived growth factor (bacteria-derived, 6xHis-tag removed) (human) (UniProt Q969H8). Nature of the experiment: NMR 15N relaxation (rotational correlation time from T1 and T2); 13C, 15N hMYDGF 508 µM in PBS pH 6, 298 K; same sample as for structure determination; τc 9.4 ns from average T1 and T2 of amides in secondary structure; both purified.

B1: human myeloid-derived growth factor (bacteria-derived, 6xHis-tag removed) (protein, UniProt Q969H8 32-173)
chain: GSKGTVSEPTTVAFDVRPGGVVHSFSHNVGPGDKYTCMFTYASQGGTNEQWQMSLGTSEDHQHFTCTIWRPQGKSYLYFTQFKAEVRGAEIEYAMAYSKAAFERESDVPLKTEEFEVTKTAVAHRPGAFKAELSKLVIVAKASRTEL
modifications: disulfide bond C63-C92; uniformly 13C, 15N labelled
For B1, the binding entry was “no binding (tested: 508 µM)”.
